Measurements: paper PMC10618058
These are yes or no findings as the source states them, for the method shown. In cells and extracts the contact can be indirect. Some entries that bind do so weakly or less than the wild type. Sequences can lack the tags named with a protein.

Biological target: T1, Nrg1-Myc13 (S. cerevisiae) (UniProt Q03125)
T1 sequence: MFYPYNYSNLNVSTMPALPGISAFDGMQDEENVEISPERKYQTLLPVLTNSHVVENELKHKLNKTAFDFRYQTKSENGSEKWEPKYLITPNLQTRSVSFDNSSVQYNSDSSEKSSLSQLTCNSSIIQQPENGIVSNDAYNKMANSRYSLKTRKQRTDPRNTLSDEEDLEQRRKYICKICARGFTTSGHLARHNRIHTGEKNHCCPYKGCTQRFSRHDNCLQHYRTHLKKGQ
Test: co-IP; extracts of the double-tagged RTG3-TAP NRG1-Myc13 strain (2000 or 4000 µg protein) precipitated with anti-Myc13 antibody 9E11 on protein A/G agarose, 2 h at 4°C, five washes (HEPES 50 mM, NaOAc 200 mM, NP-40 0.25%); Western blot with anti-TAP; cells grown on MM with glucose or ethanol and with GABA or proline, with or without alanine (1-7 mM)

binding: binds
B1: Rtg3-TAP (protein, UniProt P38165 1-486)
chain: MMNNNESEAENQRLLDELMNQTKVLQETLDFSLVTPTPHHNDDYKIHGSAYPGGETPAQQHEKLSYINTHNSNDNNNLMGSQARSNSQTPTASTIYEEAESQSSYLDDMFRTSQGGRPVTQNSISSIGQGPLRSSYSMAYDSPVDRAMNTPLQQQEGLKAELPHDFLFQHGTDDTMYNLTDDLSSSLSSSINSDMMTPNTYSSSFSYNPQSLGPASVSSTYSPKVRSPSSSFRAGSFLSSSFRHGSINTPRTRHTSISSNMTENIGPGSVPKILGGLTSDEKLRRKREFHNAVERRRRELIKQKIKELGQLVPPSLLNYDDLGKQIKPNKGIILDRTVEYLQYLAEILEIQARKKKALLAKIKELEEKKSSVAALSPFTNNHHASSGQNNSENSEERIIDIRSVPNALMNEQNSKAELHNWEPPLYDSVGNHNHAGTMESHPHTNIHEELKEFLSGDLIEAEDNAKLMFGDDNSNPADYLLEFGSG
